The experiment addresses KDM4B fused to FLAG and HA epitope tags (stably expressed in HeLa cells) (UniProt O94953). In words: affinity purification with mass spectrometry; nuclear extract of HeLa S3 cells expressing FLAG-KDM4B; Q-Sepharose, heparin Sepharose, DEAE Sepharose, then M2 agarose; copurified proteins analysed by tandem mass spectrometry.

Amino acid sequences for entries named in this document (tags omitted).
UniProt O94953: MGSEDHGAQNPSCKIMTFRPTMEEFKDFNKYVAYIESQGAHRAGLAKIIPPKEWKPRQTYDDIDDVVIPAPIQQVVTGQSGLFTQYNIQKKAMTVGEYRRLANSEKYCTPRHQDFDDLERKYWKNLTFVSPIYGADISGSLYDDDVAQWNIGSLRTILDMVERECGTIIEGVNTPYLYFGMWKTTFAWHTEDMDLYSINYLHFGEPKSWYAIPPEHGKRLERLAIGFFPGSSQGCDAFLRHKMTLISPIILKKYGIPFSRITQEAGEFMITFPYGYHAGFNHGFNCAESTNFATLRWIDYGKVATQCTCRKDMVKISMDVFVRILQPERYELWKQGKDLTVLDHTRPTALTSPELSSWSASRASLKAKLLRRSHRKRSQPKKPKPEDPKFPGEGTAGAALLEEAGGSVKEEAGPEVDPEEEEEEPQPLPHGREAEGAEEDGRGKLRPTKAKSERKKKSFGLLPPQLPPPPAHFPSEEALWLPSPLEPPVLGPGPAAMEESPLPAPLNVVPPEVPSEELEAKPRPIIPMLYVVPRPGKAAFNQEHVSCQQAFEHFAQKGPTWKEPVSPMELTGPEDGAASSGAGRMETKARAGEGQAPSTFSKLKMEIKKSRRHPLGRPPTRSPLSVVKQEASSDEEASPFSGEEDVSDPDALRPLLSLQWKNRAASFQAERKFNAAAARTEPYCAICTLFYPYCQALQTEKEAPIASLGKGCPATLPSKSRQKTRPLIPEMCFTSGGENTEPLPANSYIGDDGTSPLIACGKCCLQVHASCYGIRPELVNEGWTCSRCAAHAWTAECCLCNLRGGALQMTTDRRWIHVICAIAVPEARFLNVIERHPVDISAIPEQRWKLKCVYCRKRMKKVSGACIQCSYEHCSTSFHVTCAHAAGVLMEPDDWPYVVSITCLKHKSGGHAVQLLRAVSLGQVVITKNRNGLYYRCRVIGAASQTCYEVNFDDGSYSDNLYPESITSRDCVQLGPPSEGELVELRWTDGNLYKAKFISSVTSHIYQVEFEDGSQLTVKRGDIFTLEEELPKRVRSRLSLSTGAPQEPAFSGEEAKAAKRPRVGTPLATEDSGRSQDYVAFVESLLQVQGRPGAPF

Results are given in words; binding and its absence hold for the method and conditions named. In cells and extracts the contact can be indirect. A yes stands for co-enrichment or nearness to the bait. Other partners may have been found.

This is an account of results in PMC8144413.

B1: CCAR1 (endogenous, HeLa) (protein, UniProt Q8IX12 1-1150)
chain: MAQFGGQKNPPWATQFTATAVSQPAALGVQQPSLLGASPTIYTQQTALAAAGLTTQTPANYQLTQTAALQQQAAAAAAALQQQYSQPQQALYSVQQQLQQPQQTLLTQPAVALPTSLSLSTPQPTAQITVSYPTPRSSQQQTQPQKQRVFTGVVTKLHDTFGFVDEDVFFQLSAVKGKTPQVGDRVLVEATYNPNMPFKWNAQRIQTLPNQNQSQTQPLLKTPPAVLQPIAPQTTFGVQTQPQPQSLLQAQISAASITPLLQTQPQPLLQQPQQKAGLLQPPVRIVSQPQPARRLDPPSRFSGRNDRGDQVPNRKDDRSRERERERRRSRERSPQRKRSRERSPRRERERSPRRVRRVVPRYTVQFSKFSLDCPSCDMMELRRRYQNLYIPSDFFDAQFTWVDAFPLSRPFQLGNYCNFYVMHREVESLEKNMAILDPPDADHLYSAKVMLMASPSMEDLYHKSCALAEDPQELRDGFQHPARLVKFLVGMKGKDEAMAIGGHWSPSLDGPDPEKDPSVLIKTAIRCCKALTGIDLSVCTQWYRFAEIRYHRPEETHKGRTVPAHVETVVLFFPDVWHCLPTRSEWETLSRGYKQQLVEKLQGERKEADGEQDEEEKDDGEAKEISTPTHWSKLDPKTMKVNDLRKELESRALSSKGLKSQLIARLTKQLKVEEQKEEQKELEKSEKEEDEDDDRKSEDDKEEEERKRQEEIERQRRERRYILPDEPAIIVHPNWAAKSGKFDCSIMSLSVLLDYRLEDNKEHSFEVSLFAELFNEMLQRDFGVRIYKSLLSLPEKEDKKEKDKKSKKDERKDKKEERDDETDEPKPKRRKSGDDKDKKEDRDERKKEDKRKDDSKDDDETEEDNNQDEYDPMEAEEAEDEEDDRDEEEMTKRDDKRDINRYCKERPSKDKEKEKTQMITINRDLLMAFVYFDQSHCGYLLEKDLEEILYTLGLHLSRAQVKKLLNKVVLRESCFYRKLTDTSKDEENHEESESLQEDMLGNRLLLPTPTVKQESKDVEENVGLIVYNGAMVDVGSLLQKLEKSEKVRAEVEQKLQLLEEKTDEDEKTILNLENSNKSLSGELREVKKDLSQLQENLKISENMNLQFENQMNKTIRNLSTVMDEIHTVLKKDNVKNEDKDQKSKENGASV
Turning to B1, the binding result is given as “binds”.
